# PubChem BioAssay AID1224826, NIAID, 2016
# Aim: 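Regulators of Tlr4 signalling leading to Tnf-alpha expression in macrophages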 (primary screen)
# Cells: RAW264.7 G9 macrophages from mouse bearing reporters for p65 (GFP) and the Tnf promoter (mCherry)
# Knock-down reagent: siRNA pool against mouse genes, 100 nM
# Duration: 16 h of LPS stimulation, after 2 days of siRNA transfection
# Conditions: bacterial lipopolysaccharide (Salmonella minnesota R595), 10 ng/ml
# Measurement: 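Nuclear mCherry signal of the Tnf promoter reporter measured by imaging after background removal, scaled to each plate median and turned into robust z-scores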
# Direction: Tnf reporter robust z-score: higher = stronger Tnf promoter reporter signal after LPS; Tnf reporter intensity: higher = stronger Tnf promoter reporter signal
# Rule for the call: 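a well counts as active at a score of -1.3 or below (Tlr4 knock-down control median) or above 3 (raised signal); controls and wells holding fewer than 50 cells are excluded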
# Meaning of the calls: active = Tnf reporter clearly lowered or raised; inactive = no clear change in Tnf reporter
# The whole screen tested about 17,000 reagents; below is a part drawn at random. About 1,110 of them (6.6%) were called active. 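Active means lowered or raised reporter signal; replicate intensities are raw and not normalised per plate.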 Unmarked entries are inactive.
gene,Tnf reporter robust z-score,fewer than 50 cells in well,"Tnf reporter intensity, replicate 1","Tnf reporter intensity, replicate 2"
Crygb,-0.1,enough cells in well,239,184
Galnt7,-0.81,enough cells in well,139,126
Hdgfl3,0.11,enough cells in well,263,74.1
Wdr86,0.13,enough cells in well,292,63.6
Ino80b,-0.43,enough cells in well,177,162
Ube2n,,fewer than 50 cells per well; well left out of calls,78.9,71.2
Pfkm,0.9,enough cells in well,248,167
Pex11g,0.27,enough cells in well,154,152
Trpc7,-0.77,enough cells in well,156,187
4921511C20Rik,0.65,enough cells in well,207,84.1
Tfip11,,fewer than 50 cells per well; well left out of calls,39.7,52.6

Only “Tnf reporter intensity, replicate 2” (2 entries from above):
Trpc7: 187
4921511C20Rik: 84.1

Additional records:
gene,Tnf reporter robust z-score,fewer than 50 cells in well,"Tnf reporter intensity, replicate 1","Tnf reporter intensity, replicate 2"
Or4c110,-1.15,enough cells in well,111,95.2
Arsj,-0.33,enough cells in well,107,160
Asb15,-0.77,enough cells in well,146,103
Kcnh7,0.48,enough cells in well,243,201
Vdac3,-0.85,enough cells in well,86.1,37.7
Wdr20,,fewer than 50 cells per well; well left out of calls,124,41.6
Fmn2,1.99,enough cells in well,339,278
Kdm4c,1,enough cells in well,236,190
Spz1,3.93 (active),enough cells in well,242,223
Sema4b,1.06,enough cells in well,159,114
Clip3,,fewer than 50 cells per well; well left out of calls,150,73
Nus1,-0.23,enough cells in well,172,161
Col6a1,-0.19,enough cells in well,202,221
